We go through six sequences from patent publication US20100233714.

The exact form of at least one protein or probe is not confirmed. For some assays here: Negatives hold for the conditions tested. For some assays here: The comparison behind a weaker result is the experiment's own reference, which may not be listed here.

In data set [1] the test system is IgG Fc fragment (human) (Homo sapiens). Put plainly: filter binding. Conditions: printed negl, pH 6, 41 mM Na+, purified native protein.
Data set [2] concerns IgG, polyclonal mixed human (Homo sapiens). Put plainly: pull-down. Conditions: 5'-aminohexyl, immobilized on Sepharose, purified native protein, protein details: ChromPure, Jackson ImmunoResearch.
For data set [3], the system named is IgG Fab'2 fragment (Example 2). Put plainly: pull-down. Conditions: immobilized on Sepharose, 100 mM TEAA, 20 mM Mg2+, pH 7, purified native protein.

For the sequence CCTTCCTTTGGAAGGTTG [RAD23], the binding result in data set [1] (folded or branched DNA) is on record as “no binding”.

Take TTTTCGCGCGTACGCGCGCGAA [RAD15]: in data set [1] (single-stranded DNA), the binding result is “no binding”.

Take TGTGTGTGTGTGTGT [(TG)7T control]: the binding result in data set [2] (control, retention much lower than C7 and H2, single-stranded DNA) is given as “binds more weakly”; in data set [3] (5' aminohexyl, retention on DNA-Sepharose H2>C7>>TG repeat>blank, single-stranded DNA) it was “binds more weakly”.

For TTTTCGCGCGTTAACGCGCGAA [RAD16], the binding result in data set [1] (single-stranded DNA) is on record as “no binding”.

Regarding TTTTCGCGCGTTTCCGCGCGAA [C7], the binding result in data set [3] (5' aminohexyl, retention on DNA-Sepharose H2>C7>>TG repeat>blank, folded or branched DNA) is recorded as “binds”.

Turning to TTTTGGTTGGGGTGGTTGG [H2], the binding result in data set [2] (bead retention H2>C7>>TG repeat, 100 mM TEAA, 20 mM Mg2+, pH 7, folded or branched DNA) is reported as “binds”; in data set [3] (5'-aminohexyl, H2>C7>>TG repeat, folded or branched DNA) it was “binds”.
